Measured values from PMC10279913.

Sequences of proteins named here, by UniProt entry; tags and fusion partners are left off. A change or cut given only in a name is not applied to a line headed by its entry.
UniProt Q9N536: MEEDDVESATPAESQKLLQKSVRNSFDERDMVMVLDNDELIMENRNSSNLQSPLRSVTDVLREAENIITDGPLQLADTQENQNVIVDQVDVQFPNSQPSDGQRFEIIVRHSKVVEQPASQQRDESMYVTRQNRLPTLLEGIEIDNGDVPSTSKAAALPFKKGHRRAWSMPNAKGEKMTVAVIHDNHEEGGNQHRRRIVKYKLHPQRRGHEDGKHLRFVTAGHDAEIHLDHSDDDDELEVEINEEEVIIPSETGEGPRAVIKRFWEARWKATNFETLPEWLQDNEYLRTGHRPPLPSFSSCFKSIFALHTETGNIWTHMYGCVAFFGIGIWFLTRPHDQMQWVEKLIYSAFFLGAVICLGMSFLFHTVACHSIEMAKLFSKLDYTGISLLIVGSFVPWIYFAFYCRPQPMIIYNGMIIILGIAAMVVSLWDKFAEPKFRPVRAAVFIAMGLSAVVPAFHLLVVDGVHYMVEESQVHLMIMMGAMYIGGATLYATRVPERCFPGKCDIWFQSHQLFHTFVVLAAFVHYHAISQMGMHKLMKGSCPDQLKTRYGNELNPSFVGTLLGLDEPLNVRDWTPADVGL

T1: MYC::HPO-8 (C. elegans) (UniProt O17040)
T1 sequence: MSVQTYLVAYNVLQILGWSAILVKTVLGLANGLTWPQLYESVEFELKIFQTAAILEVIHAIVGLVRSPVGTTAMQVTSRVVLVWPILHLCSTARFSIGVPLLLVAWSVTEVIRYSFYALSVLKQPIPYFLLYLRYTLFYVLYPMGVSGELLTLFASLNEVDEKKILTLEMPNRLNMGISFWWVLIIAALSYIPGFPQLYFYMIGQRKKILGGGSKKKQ


What was measured:
MYC::HPO-8 (C. elegans) = target: T1, MYC::HPO-8 (C. elegans); assay: co-IP; MYC IP from worm lysate (800 μg) with Myc-Trap magnetic agarose beads, 75 min, 4 °C; 10 mM Tris pH 7.5, 150 mM NaCl, 5 mM EDTA, 0.5% NP40; Western blot
ACS-4::FLAG (C. elegans) = assay: co-IP; FLAG IP from worm lysate (1000 μg) with anti-FLAG M2 magnetic beads, overnight, 4 °C; 10 mM Tris pH 7.5, 150 mM NaCl, 5 mM EDTA, 0.5% NP40; Western blot
HA::PAQR-2 (C. elegans) = HA::PAQR-2 (C. elegans) (UniProt Q9N536); assay: co-IP; HA IP from worm lysate (1000 μg) with HA-Tag (C29F4) rabbit mAb Sepharose bead conjugate, overnight, 4 °C; 25 mM Tris pH 7.5, 150 mM NaCl, 0.1% NP40; Western blot

Molecule	binding (MYC::HPO-8 (C. elegans))	binding (ACS-4::FLAG (C. elegans))	binding (HA::PAQR-2 (C. elegans))
HA::PAQR-2 (from UniProt Q9N536) (receptor)	binds	–	–
MYC::HPO-8 (enzyme, UniProt O17040 1-218) MSVQTYLVAYNVLQILGWSAILVKTVLGLANGLTWPQLYESVEFELKIFQTAAILEVIHAIVGLVRSPVGTTAMQVTSRVVLVWPILHLCSTARFSIGVPLLLVAWSVTEVIRYSFYALSVLKQPIPYFLLYLRYTLFYVLYPMGVSGELLTLFASLNEVDEKKILTLEMPNRLNMGISFWWVLIIAALSYIPGFPQLYFYMIGQRKKILGGGSKKKQ	–	binds	binds

No constants are given. Whether binding was seen depends on the method and setting. In cells and extracts the contact can be indirect. A result given as binding can be weak or reduced; the word gives no strength. Sequences can lack the tags named with a protein.
